From patent US20140045873A1, “NOVEL MICROBIOCIDES” (SYNGENTA PARTICIPATIONS AG, priority 2010, published 2014)
Some entries share one result that the patent states for a list of compounds.

System: Plasmopara viticola
Experiment: Plasmopara viticola / grape / leaf disc preventative
Assay type: in vivo
Details: grape vine leaf disks, inoculated 1 day after application, assessed 6-8 days after application, rate not given

## COc1cc(C)nc(-c2cccc(CCCO/N=C(\C)c3cc(C)cc(C)n3)n2)c1 [P.13]
  control of Plasmopara viticola (percent disease control compared to untreated): at least 80%

## CCOc1cc(C)nc(-c2cccc(CCCO/N=C(\C)c3cc(C)cc(C)n3)n2)c1 [P.28]
  control of Plasmopara viticola (percent disease control compared to untreated): at least 80%
